# Results published in PMC11177981.
# These are yes or no findings as the source states them, for the method shown. In cells and extracts the contact can be indirect. Some binding calls cover weakened binding; strength is not graded here. Tags and fused reporters may be left off the sequences shown.
# T1: FLAG-GLUT4 (human full length) expressed in C2C12 cells (human) (UniProt P14672)
# T1 sequence: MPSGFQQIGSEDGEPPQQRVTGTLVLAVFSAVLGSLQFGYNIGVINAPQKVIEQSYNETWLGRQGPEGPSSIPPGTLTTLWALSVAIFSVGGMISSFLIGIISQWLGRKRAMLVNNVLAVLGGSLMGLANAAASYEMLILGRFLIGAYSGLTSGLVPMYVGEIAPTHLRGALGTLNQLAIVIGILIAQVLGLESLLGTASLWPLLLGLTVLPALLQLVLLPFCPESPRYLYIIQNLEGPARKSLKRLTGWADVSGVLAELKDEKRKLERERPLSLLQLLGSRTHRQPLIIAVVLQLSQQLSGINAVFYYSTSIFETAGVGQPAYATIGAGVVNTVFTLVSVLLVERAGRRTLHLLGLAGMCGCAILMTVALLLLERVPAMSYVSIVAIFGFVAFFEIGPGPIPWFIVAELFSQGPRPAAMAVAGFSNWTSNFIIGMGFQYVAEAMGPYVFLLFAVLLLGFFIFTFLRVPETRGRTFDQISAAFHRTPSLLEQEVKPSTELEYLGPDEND
# T2: FLAG-GLUT4 (human full length) expressed in HEK293T cells (human) (UniProt P14672)
# T2 sequence: T1 sequence
# T3: FLAG-MDA5 full length (FL) (UniProt Q9BYX4)
# T3 sequence: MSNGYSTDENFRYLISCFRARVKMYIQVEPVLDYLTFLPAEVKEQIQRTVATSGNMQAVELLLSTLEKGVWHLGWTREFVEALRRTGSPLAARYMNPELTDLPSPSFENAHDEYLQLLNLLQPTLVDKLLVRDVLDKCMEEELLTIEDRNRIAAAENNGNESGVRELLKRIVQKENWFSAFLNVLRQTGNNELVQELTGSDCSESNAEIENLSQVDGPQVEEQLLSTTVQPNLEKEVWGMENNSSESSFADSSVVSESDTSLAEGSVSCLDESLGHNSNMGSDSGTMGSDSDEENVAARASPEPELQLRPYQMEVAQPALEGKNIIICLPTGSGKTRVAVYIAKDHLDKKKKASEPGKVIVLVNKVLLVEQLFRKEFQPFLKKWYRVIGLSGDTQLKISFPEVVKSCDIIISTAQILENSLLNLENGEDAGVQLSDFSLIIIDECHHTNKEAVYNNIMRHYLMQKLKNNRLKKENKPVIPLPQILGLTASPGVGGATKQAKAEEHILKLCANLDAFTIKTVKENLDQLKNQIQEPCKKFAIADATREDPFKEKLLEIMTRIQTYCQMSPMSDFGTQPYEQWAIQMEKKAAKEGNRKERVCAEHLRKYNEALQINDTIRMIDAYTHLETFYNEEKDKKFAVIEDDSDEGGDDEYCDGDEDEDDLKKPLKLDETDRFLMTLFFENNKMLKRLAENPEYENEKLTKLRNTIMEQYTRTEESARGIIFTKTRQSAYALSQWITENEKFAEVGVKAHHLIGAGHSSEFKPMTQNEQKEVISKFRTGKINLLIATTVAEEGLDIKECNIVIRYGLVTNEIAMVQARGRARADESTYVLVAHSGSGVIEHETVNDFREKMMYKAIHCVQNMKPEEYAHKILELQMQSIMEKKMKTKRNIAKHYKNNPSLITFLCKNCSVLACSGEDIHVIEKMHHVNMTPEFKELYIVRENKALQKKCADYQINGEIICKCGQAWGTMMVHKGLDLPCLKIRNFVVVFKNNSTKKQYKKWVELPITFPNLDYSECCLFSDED
# T4: FLAG-RIG-I full length (FL) (human) (UniProt O95786)
# T4 sequence: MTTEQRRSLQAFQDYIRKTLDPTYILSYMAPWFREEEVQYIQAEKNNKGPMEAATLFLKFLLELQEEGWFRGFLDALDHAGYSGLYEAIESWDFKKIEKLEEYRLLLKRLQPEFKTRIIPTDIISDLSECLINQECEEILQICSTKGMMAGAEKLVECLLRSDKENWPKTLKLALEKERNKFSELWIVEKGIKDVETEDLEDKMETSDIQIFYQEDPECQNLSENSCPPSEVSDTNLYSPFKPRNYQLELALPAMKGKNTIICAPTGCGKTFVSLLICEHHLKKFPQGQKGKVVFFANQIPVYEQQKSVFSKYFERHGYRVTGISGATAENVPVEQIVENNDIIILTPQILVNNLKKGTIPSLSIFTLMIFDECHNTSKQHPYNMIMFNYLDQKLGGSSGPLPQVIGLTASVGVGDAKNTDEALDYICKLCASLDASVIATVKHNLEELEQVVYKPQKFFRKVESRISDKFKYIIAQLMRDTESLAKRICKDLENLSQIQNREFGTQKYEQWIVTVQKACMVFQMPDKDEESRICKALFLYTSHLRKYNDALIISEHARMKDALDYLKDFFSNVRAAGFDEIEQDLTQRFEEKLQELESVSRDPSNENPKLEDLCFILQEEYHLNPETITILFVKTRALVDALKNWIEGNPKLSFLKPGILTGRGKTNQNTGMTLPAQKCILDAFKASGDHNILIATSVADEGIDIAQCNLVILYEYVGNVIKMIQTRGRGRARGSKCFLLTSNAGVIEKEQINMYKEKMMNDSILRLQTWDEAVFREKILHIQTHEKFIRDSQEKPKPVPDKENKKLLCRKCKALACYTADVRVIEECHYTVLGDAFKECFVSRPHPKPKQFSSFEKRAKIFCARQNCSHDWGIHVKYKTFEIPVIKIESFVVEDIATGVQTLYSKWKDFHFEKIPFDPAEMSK
# B1: melanoma differentiation-associated protein 5 (MDA5), endogenous in C2C12 cells (protein, UniProt Q8R5F7 1-1025)
# chain: MSIVCSAEDSFRNLILFFRPRLKMYIQVEPVLDHLIFLSAETKEQILKKINTCGNTSAAELLLSTLEQGQWPLGWTQMFVEALEHSGNPLAARYVKPTLTDLPSPSSETAHDECLHLLTLLQPTLVDKLLINDVLDTCFEKGLLTVEDRNRISAAGNSGNESGVRELLRRIVQKENWFSTFLDVLRQTGNDALFQELTGGGCPEDNTDLANSSHRDGPAANECLLPAVDESSLETEAWNVDDILPEASCTDSSVTTESDTSLAEGSVSCFDESLGHNSNMGRDSGTMGSDSDESVIQTKRVSPEPELQLRPYQMEVAQPALDGKNIIICLPTGSGKTRVAVYITKDHLDKKKQASESGKVIVLVNKVMLAEQLFRKEFNPYLKKWYRIIGLSGDTQLKISFPEVVKSYDVIISTAQILENSLLNLESGDDDGVQLSDFSLIIIDECHHTNKEAVYNNIMRRYLKQKLRNNDLKKQNKPAIPLPQILGLTASPGVGAAKKQSEAEKHILNICANLDAFTIKTVKENLGQLKHQIKEPCKKFVIADDTRENPFKEKLLEIMASIQTYCQKSPMSDFGTQHYEQWAIQMEKKAAKDGNRKDRVCAEHLRKYNEALQINDTIRMIDAYSHLETFYTDEKEKKFAVLNDSDKSDDEASSCNDQLKGDVKKSLKLDETDEFLMNLFFDNKKMLKKLAENPKYENEKLIKLRNTILEQFTRSEESSRGIIFTKTRQSTYALSQWIMENAKFAEVGVKAHHLIGAGHSSEVKPMTQTEQKEVISKFRTGEINLLIATTVAEEGLDIKECNIVIRYGLVTNEIAMVQARGRARADESTYVLVTSSGSGVTEREIVNDFREKMMYKAINRVQNMKPEEYAHKILELQVQSILEKKMKVKRSIAKQYNDNPSLITLLCKNCSMLVCSGENIHVIEKMHHVNMTPEFKGLYIVRENKALQKKFADYQTNGEIICKCGQAWGTMMVHKGLDLPCLKIRNFVVNFKNNSPKKQYKKWVELPIRFPDLDYSEYCLYSDED
# B2: retinoic acid inducible gene I (RIG-I), endogenous in C2C12 cells (protein, UniProt Q6Q899 1-926)
# chain: MTAEQRQNLQAFRDYIKKILDPTYILSYMSSWLEDEEVQYIQAEKNNKGPMEAASLFLQYLLKLQSEGWFQAFLDALYHAGYCGLCEAIESWDFQKIEKLEEHRLLLRRLEPEFKATVDPNDILSELSECLINQECEEIRQIRDTKGRMAGAEKMAECLIRSDKENWPKVLQLALEKDNSKFSELWIVDKGFKRAESKADEDDGAEASSIQIFIQEEPECQNLSQNPGPPSEASSNNLHSPLKPRNYQLELALPAKKGKNTIICAPTGCGKTFVSLLICEHHLKKFPCGQKGKVVFFANQIPVYEQQATVFSRYFERLGYNIASISGATSDSVSVQHIIEDNDIIILTPQILVNNLNNGAIPSLSVFTLMIFDECHNTSKNHPYNQIMFRYLDHKLGESRDPLPQVVGLTASVGVGDAKTAEEAMQHICKLCAALDASVIATVRDNVAELEQVVYKPQKISRKVASRTSNTFKCIISQLMKETEKLAKDVSEELGKLFQIQNREFGTQKYEQWIVGVHKACSVFQMADKEEESRVCKALFLYTSHLRKYNDALIISEDAQMTDALNYLKAFFHDVREAAFDETERELTRRFEEKLEELEKVSRDPSNENPKLRDLYLVLQEEYHLKPETKTILFVKTRALVDALKKWIEENPALSFLKPGILTGRGRTNRATGMTLPAQKCVLEAFRASGDNNILIATSVADEGIDIAECNLVILYEYVGNVIKMIQTRGRGRARDSKCFLLTSSADVIEKEKANMIKEKIMNESILRLQTWDEMKFGKTVHRIQVNEKLLRDSQHKPQPVPDKENKKLLCGKCKNFACYTADIRVVETSHYTVLGDAFKERFVCKPHPKPKIYDNFEKKAKIFCAKQNCSHDWGIFVRYKTFEIPVIKIESFVVEDIVSGVQNRHSKWKDFHFERIQFDPAEMSV
# B3: ubiquitin regulatory X domain 9 (UBXN9, TUG), endogenous in HEK293T cells (protein, UniProt Q9BZE9 1-553)
# chain: MAAPAGGGGSAVSVLAPNGRRHTVKVTPSTVLLQVLEDTCRRQDFNPCEYDLKFQRSVLDLSLQWRFANLPNNAKLEMVPASRSREGPENMVRIALQLDDGSRLQDSFCSGQTLWELLSHFPQIRECLQHPGGATPVCVYTRDEVTGEAALRGTTLQSLGLTGGSATIRFVMKCYDPVGKTPGSLGSSASAGQAAASAPLPLESGELSRGDLSRPEDADTSGPCCEHTQEKQSTRAPAAAPFVPFSGGGQRLGGPPGPTRPLTSSSAKLPKSLSSPGGPSKPKKSKSGQDPQQEQEQERERDPQQEQERERPVDREPVDREPVVCHPDLEERLQAWPAELPDEFFELTVDDVRRRLAQLKSERKRLEEAPLVTKAFREAQIKEKLERYPKVALRVLFPDRYVLQGFFRPSETVGDLRDFVRSHLGNPELSFYLFITPPKTVLDDHTQTLFQANLFPAALVHLGAEEPAGVYLEPGLLEHAISPSAADVLVARYMSRAAGSPSPLPAPDPAPKSEPAAEEGALVPPEPIPGTAQPVKRSLGKVPKWLKLPASKR
# B4: GLUT4 (Myc-tagged) expressed in HEK293T cells (protein, UniProt P14672 1-509)
# chain: T1 sequence
# Legend:
# [1] = target: T1, FLAG-GLUT4 (human full length) expressed in C2C12 cells (human); experiment: co-IP
# [2] = target: T2, FLAG-GLUT4 (human full length) expressed in HEK293T cells (human); experiment: co-IP; anti-FLAG magnetic beads on lysate (2% DDM, 25mM HEPES, 150mM NaCl) of HEK293T cells transfected with FLAG-GLUT4 constructs; blot for endogenous RIG-I and UBXN9; vector pcDNA3.1-FLAG as control
# [3] = target: T3, FLAG-MDA5 full length (FL); experiment: co-IP; HEK293T cells transfected with FLAG-tagged RIG-I or MDA5 constructs and Myc-tagged GLUT4; anti-FLAG magnetic beads on lysate (2% DDM, 25mM HEPES, 150mM NaCl)
# [4] = target: T4, FLAG-RIG-I full length (FL) (human); experiment: as above
binder,measurement,setting,value
B1,binding,[1],binds
B2,binding,[1],binds
B3,binding,[2],binds
B4,binding,[3],binds
same,binding,[4],binds
